In article PMC12530543:
These are yes or no findings as the source states them, for the method shown. Binding seen in cells or lysates may run through a third protein.

By UniProt entry, the sequences of proteins in these tests, tags left out.
UniProt P03407: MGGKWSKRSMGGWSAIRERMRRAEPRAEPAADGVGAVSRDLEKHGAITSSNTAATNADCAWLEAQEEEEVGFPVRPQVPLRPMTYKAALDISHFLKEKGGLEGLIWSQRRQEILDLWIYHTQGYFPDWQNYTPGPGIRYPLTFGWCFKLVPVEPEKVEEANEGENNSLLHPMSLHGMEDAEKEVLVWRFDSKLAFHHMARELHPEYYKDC

Molecular target: HIV-1 SF2 Nef with an HA-tag (HIV-1 (SF2)) (UniProt P03407)
Experiment: co-IP; Ser5-FLAG, Nef-HA or glycoGag-HA expressed alone, or Ser5-FLAG with Nef-HA, in HEK293T cells; RIPA lysis; anti-FLAG M2 magnetic beads or anti-HA affinity gel; endogenous RETREG1 detected by WB

reticulophagy regulator 1 (RETREG1), endogenous (from UniProt Q9H6L5-1 1-497)
binding: no binding
